This is a selection; strong and weak results do not stand in their true shares. At the low end of the ranking the order means little.

Protein sequences, listed by entry. Tags and fused reporters are not part of them. Lines headed by an entry give the natural chain unless they say otherwise; changes in a name come on top.
UniProt Q01892: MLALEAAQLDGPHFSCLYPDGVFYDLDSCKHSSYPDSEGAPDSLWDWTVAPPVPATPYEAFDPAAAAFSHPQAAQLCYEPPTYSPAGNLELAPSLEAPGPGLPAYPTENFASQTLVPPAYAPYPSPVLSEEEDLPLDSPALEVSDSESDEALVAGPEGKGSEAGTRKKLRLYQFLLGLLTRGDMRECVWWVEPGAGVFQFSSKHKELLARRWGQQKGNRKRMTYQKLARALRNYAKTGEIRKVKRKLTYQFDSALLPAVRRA
UniProt P41161: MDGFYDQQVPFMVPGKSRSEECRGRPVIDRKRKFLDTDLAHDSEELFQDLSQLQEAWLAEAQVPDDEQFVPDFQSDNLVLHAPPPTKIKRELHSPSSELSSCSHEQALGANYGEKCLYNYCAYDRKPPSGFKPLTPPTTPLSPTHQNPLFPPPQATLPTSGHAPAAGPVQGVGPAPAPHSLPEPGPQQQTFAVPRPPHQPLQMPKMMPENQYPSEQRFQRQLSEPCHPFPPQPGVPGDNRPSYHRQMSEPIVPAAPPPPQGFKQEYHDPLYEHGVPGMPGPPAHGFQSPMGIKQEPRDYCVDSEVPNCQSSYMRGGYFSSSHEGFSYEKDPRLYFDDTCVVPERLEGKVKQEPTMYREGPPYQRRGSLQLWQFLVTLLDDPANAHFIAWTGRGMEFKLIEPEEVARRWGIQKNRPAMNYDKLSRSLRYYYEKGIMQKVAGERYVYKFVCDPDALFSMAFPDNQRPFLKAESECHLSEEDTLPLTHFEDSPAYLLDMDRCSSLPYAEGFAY
UniProt Q99607: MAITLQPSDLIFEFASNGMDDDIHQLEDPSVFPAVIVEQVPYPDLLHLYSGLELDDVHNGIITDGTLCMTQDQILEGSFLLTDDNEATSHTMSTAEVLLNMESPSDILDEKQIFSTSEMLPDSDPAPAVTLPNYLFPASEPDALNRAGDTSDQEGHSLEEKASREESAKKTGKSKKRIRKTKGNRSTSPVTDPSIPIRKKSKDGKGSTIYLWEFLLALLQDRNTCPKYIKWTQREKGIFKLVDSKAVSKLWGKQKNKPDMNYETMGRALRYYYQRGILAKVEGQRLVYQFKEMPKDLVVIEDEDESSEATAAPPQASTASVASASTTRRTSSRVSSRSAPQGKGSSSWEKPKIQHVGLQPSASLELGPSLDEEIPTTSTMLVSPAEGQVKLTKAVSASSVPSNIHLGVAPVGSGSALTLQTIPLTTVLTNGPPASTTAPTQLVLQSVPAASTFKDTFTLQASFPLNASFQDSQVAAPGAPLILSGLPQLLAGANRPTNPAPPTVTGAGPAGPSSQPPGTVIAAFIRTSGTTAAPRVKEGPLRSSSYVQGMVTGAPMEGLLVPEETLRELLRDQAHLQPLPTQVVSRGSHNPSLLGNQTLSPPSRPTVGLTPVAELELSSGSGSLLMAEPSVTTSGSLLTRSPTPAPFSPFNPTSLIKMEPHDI

Some targets named below: SPIB (UniProt Q01892); ETV5 (UniProt P41161); ELF4 (UniProt Q99607).
Holding throughout (assay): DAPPL (digital affinity profiling via proximity ligation, sequencing)
Holding throughout (settings): 10 mM Tris-HCl pH 7.5, 50 mM NaCl, 1 mM DTT, 4% glycerol, room temperature, 30 min; GST-TFs on glutathione beads, 16-mer random dsDNA library, 0.1% …; high values mean tight binding; double strand, one strand shown; scale: fold enrichment (6-mer frequency, TF over GST control)

For a further test, the target named is T1, FLI1 (UniProt Q01543).
T1 sequence: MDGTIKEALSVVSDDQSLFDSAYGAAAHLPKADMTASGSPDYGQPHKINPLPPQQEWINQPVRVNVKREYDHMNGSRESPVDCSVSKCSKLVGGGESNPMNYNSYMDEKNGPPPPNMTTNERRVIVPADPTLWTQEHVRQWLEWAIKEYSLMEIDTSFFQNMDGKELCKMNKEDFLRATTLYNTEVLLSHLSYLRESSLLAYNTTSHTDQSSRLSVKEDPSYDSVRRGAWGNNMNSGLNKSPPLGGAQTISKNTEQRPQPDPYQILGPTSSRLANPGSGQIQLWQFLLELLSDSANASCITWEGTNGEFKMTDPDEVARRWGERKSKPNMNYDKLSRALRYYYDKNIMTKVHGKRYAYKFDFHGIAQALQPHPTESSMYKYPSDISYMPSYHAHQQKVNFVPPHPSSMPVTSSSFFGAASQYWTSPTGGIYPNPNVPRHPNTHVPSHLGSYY

Another test concerns the target T2, EHF (UniProt Q9NZC4).
T2 sequence: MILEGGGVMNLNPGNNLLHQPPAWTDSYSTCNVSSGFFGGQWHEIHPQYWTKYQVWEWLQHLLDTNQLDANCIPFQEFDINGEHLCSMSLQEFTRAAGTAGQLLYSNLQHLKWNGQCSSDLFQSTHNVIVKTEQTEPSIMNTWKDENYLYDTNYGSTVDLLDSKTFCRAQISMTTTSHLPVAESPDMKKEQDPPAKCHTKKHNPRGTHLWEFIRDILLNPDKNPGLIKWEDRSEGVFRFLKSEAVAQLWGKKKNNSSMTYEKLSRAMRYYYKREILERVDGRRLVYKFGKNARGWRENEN

Another test concerns the target T3, ETV2 (UniProt O00321).
T3 sequence: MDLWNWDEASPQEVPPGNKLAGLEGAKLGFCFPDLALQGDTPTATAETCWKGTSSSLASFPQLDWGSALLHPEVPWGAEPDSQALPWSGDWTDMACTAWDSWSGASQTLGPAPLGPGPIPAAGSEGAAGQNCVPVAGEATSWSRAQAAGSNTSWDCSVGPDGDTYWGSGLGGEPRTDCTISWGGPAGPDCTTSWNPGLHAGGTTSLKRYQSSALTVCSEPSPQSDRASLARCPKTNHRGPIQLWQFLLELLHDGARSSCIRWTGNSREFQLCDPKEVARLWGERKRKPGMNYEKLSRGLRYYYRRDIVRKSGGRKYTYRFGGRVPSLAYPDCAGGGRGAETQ

The target in the next test is T4, ETV3L (UniProt Q6ZN32).
T4 sequence: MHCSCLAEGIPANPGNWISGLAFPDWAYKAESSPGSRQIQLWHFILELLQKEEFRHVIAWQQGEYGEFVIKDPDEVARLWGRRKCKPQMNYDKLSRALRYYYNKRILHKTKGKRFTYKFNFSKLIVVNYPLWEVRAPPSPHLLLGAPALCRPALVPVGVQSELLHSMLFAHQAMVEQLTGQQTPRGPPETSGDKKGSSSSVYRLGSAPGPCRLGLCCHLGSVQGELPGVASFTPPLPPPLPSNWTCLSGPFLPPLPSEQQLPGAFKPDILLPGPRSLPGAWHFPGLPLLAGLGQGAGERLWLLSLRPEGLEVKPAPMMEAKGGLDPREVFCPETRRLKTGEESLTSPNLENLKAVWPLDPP

For the sequence GACTAA, the binding signal in the test with FLI1 came out at 0.926; with EHF, 0.903; in the test with SPIB, 0.9; in the test with ETV5, 0.88; in the test with ELF4 it was 0.919; with ETV2, 0.959. Moreover, the binding signal in the test with ETV3L worked out at 0.952.
Regarding AGCCTG, the binding signal is 0.939 with FLI1; 0.884 with EHF; 0.944 with SPIB; 0.835 with ETV5; 0.821 in the test with ELF4; 0.953 with ETV2. The sequence further had a binding signal with ETV3L of 0.874.
GCAAGG: the binding signal came to 0.83 with FLI1; 0.793 with EHF; 0.768 with SPIB; 0.773 with ETV5; 0.807 with ELF4; 0.757 in the test with ETV2. This sequence also showed a binding signal with ETV3L of 0.829.
Turning to GGTGCG, the binding signal with FLI1 turned out to be 0.623; with EHF, 0.643; in the test with SPIB, 0.596; with ETV5 it was 0.585; with ELF4, 0.598; with ETV2, 0.643. This sequence came in with a binding signal with ETV3L of 0.583.
As for TGTCGG, the binding signal with FLI1 is 0.334; in the test with EHF, 0.368; with SPIB, 0.39; with ETV5, 0.34; with ELF4, 0.349; with ETV2, 0.347. This sequence yielded a binding signal with ETV3L of 0.348.
Consider ACCGTA, for which the binding signal with FLI1 was found to be 0.893; in the test with EHF, 0.846; in the test with SPIB, 0.87; in the test with ETV5 it was 0.834; with ELF4 it was 0.906; in the test with ETV2, 0.896. In addition, the binding signal with ETV3L came out at 0.881.
Turning to CCGGGC, the binding signal with FLI1 was found to be 0.889; with EHF, 0.776; with SPIB, 0.953; in the test with ETV5, 0.816; with ELF4, 0.791; with ETV2, 0.83. Moreover, the binding signal in the test with ETV3L was found to be 0.727.
Turning to GCGAGC, the binding signal worked out at 0.881 with FLI1; 0.904 in the test with EHF; 0.841 with SPIB; 0.858 in the test with ETV5; 0.91 with ELF4; 0.763 with ETV2. In the test with ETV3L, this sequence came in with a binding signal of 0.815.
Turning to ACAGAC, the binding signal is 0.75 with FLI1; 0.822 with EHF; 0.806 in the test with SPIB; 0.809 with ETV5; 0.86 with ELF4; 0.851 in the test with ETV2. The sequence further displayed a binding signal in the test with ETV3L of 0.794.
As to GGAGAG, the binding signal in the test with FLI1 was determined as 0.277; in the test with EHF it was 0.276; with SPIB, 0.23; in the test with ETV5, 0.289; with ELF4, 0.29; in the test with ETV2, 0.244. The sequence also registered a binding signal with ETV3L of 0.261.
Take AGCGAG: the binding signal with FLI1 stood at 0.704; with EHF, 0.632; in the test with SPIB it was 0.586; with ETV5, 0.641; with ELF4, 0.652; in the test with ETV2, 0.756. Besides, in the test with ETV3L, the binding signal was determined as 0.633.
Regarding GCGGCC, the binding signal with FLI1 turned out to be 0.865; with EHF it was 0.723; with SPIB it was 0.726; in the test with ETV5, 0.875; with ELF4, 0.909; with ETV2 it was 0.875. The sequence also gave a binding signal with ETV3L of 0.78.
For GGGTAG, the binding signal is 0.766 in the test with FLI1; 0.566 in the test with EHF; 0.691 with SPIB; 0.664 with ETV5; 0.617 with ELF4; 0.725 with ETV2. The binding signal in the test with ETV3L is 0.634.
For the sequence GCGTGG, the binding signal in the test with FLI1 came to 0.509; with EHF, 0.524; in the test with SPIB, 0.589; with ETV5, 0.521; in the test with ELF4, 0.563; with ETV2, 0.543. In addition, the binding signal in the test with ETV3L was 0.612.
For the sequence GATCGC, the binding signal was determined as 0.946 in the test with FLI1; 0.894 with EHF; 0.788 in the test with SPIB; 0.887 with ETV5; 0.911 with ELF4; 0.978 with ETV2. For the same sequence, the binding signal with ETV3L stood at 0.849.
With AGAACG, the binding signal is 0.411 with FLI1; 0.442 with EHF; 0.424 with SPIB; 0.45 with ETV5; 0.474 in the test with ELF4; 0.486 with ETV2. The sequence further had a binding signal with ETV3L of 0.454.
Consider ACGAGG, for which the binding signal with FLI1 worked out at 0.783; with EHF, 0.727; with SPIB, 0.835; in the test with ETV5, 0.787; with ELF4, 0.811; with ETV2 it was 0.709. Moreover, in the test with ETV3L, the binding signal amounted to 0.67.
As to AGTTGG, the binding signal with FLI1 is 0.471; in the test with EHF, 0.482; in the test with SPIB it was 0.459; in the test with ETV5, 0.525; with ELF4, 0.451; in the test with ETV2 it was 0.505. For the same sequence, the binding signal with ETV3L stood at 0.485.
Take AGCCGG: the binding signal was 0.612 with FLI1; 0.595 with EHF; 0.648 with SPIB; 0.623 with ETV5; 0.533 in the test with ELF4; 0.536 with ETV2. This sequence also had a binding signal with ETV3L of 0.548.
Turning to GAGGGG, the binding signal with FLI1 was 0.52; with EHF, 0.499; in the test with SPIB, 0.54; with ETV5, 0.545; with ELF4, 0.509; with ETV2 it was 0.6. In the test with ETV3L, this sequence returned a binding signal of 0.49.
In the case of CGCATC, the binding signal in the test with FLI1 was determined as 0.793; in the test with EHF, 0.906; in the test with SPIB, 0.945; in the test with ETV5 it was 0.901; with ELF4, 0.849; with ETV2, 0.772. This sequence gave a binding signal in the test with ETV3L of 0.895.
As to CTAGTC, the binding signal came to 0.721 with FLI1; 0.755 with EHF; 0.711 with SPIB; 0.747 with ETV5; 0.756 in the test with ELF4; 0.703 with ETV2. In addition, the binding signal in the test with ETV3L turned out to be 0.751.
Consider AGACAT, for which the binding signal with FLI1 was 0.805; with EHF, 0.797; with SPIB, 0.815; with ETV5 it was 0.834; in the test with ELF4, 0.793; in the test with ETV2 it was 0.917. The same sequence came in with a binding signal with ETV3L of 0.896.
As for ACGGTG, the binding signal with FLI1 was found to be 0.54; with EHF, 0.504; with SPIB it was 0.5; in the test with ETV5, 0.527; with ELF4 it was 0.575; in the test with ETV2 it was 0.531. In addition, in the test with ETV3L, the binding signal is 0.563.
Turning to GGCAAG, the binding signal with FLI1 stood at 0.72; with EHF, 0.723; in the test with SPIB, 0.679; with ETV5, 0.705; with ELF4, 0.714; in the test with ETV2 it was 0.583. The same sequence displayed a binding signal with ETV3L of 0.739.
Turning to AGCAGG, the binding signal was determined as 0.876 with FLI1; 0.863 with EHF; 0.861 in the test with SPIB; 0.951 with ETV5; 0.899 with ELF4; 0.953 in the test with ETV2. In addition, the binding signal in the test with ETV3L turned out to be 0.81.
GTGTAT: the binding signal with FLI1 worked out at 0.975; with EHF it was 0.978; with SPIB, 0.939; with ETV5 it was 0.971; in the test with ELF4 it was 0.86; with ETV2, 0.806. In the test with ETV3L, this sequence came in with a binding signal of 0.829.
For the sequence GGAGGT, the binding signal with FLI1 came to 0.357; in the test with EHF it was 0.337; with SPIB, 0.3; with ETV5 it was 0.355; in the test with ELF4, 0.334; in the test with ETV2, 0.394. In the test with ETV3L, this sequence displayed a binding signal of 0.379.
In the case of AAGGCG, the binding signal with FLI1 was 0.663; with EHF, 0.65; with SPIB it was 0.647; with ETV5, 0.73; in the test with ELF4 it was 0.668; with ETV2 it was 0.732. In addition, the binding signal with ETV3L is 0.677.
As for AACCAG, the binding signal with FLI1 stood at 0.822; in the test with EHF it was 0.909; in the test with SPIB it was 0.89; with ETV5, 0.873; with ELF4, 0.789; with ETV2, 0.839. For the same sequence, the binding signal in the test with ETV3L is 0.895.

The values are drawn from paper PMC7862700.
